# Experimental data: patent publication US20260256820A1, “AN ANTI-INFECTIVE AGENT, METHOD OF TREATMENT, AND USE THEREOF” (SASTRA DEEMED UNIVERSITY, priority 2022, published 2026)
# For at least one compound, name, drawing or mass did not settle the structure.
# Legend:
# [1] = test system: C.albicans strains (ATCC SC5314, ATCC 90028, and clinical isolate, BF1); assay: anti-biofilm activity; type: cell-based, Candida albicans; details: varying concentrations; three C.albicans strains
# [2] = test system: C.albicans (ATCC SC5314, ATCC 90028, clinical isolate, BF1); assay: germ tube inhibition kinetics; type: cell-based, Candida albicans; details: about 200 nM SC5314, about 90 nM ATCC 90028 and BF1
structure (smiles),measurement,setting,value
"C[C@H]1O[C@H](O[C@H]2[C@H](O)[C@@H](O)[C@@H](O[C@H]3[C@H](O)[C@@H](O)C(O)O[C@@H]3CO)O[C@@H]2CO)[C@H](O)[C@@H](O)[C@@H]1N[C@H]1C=C(CO)[C@@H](O)[C@H](O)[C@H]1O (stereo partly drawn) [anti-infective agent, acarbose]",biofilm inhibition,[1],inhibited
same,germ tube development / morphogenic transformations from yeast,[2],"inhibit morphogenic transformations, from yeast"
